The list shows a part of the results. Further columns of the screen follow, without active or inactive calls. The list favours compounds with an active or inconclusive main result. Words in brackets tell the shape of the fitted curve; partial curves, single points and poor fits give uncertain potencies.
Assay: qHTS Assay for Modulators of Lamin A Splicing
Conditions: HeLa LMNA splicing GFP/RFP minigene ratio, 48 h
Outline: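 S3 HeLa cells stably expressing lamin A-EGFP splicing minigene plus DsRed2, 600 cells/well, 48 h compound exposure at 37C. Laser-scanning cytometry; analysed as GFP (500-530 nm)/RFP (575-640 nm) total intensity ratio; 0.5% DMSO vehicle.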

[1] = measured here: RFP viability control channel
[2] = measured here: GFP splicing reporter channel

| Compound | AC50 [1] | AC50 [2] |
| --- | --- | --- |
| Cn1ncc(C#N)c1/N=C/N(Cc1ccccc1)Cc1ccccc1 | 15.8 µM [rising, single point] | – |
| COc1ccc(C(=O)CCC(=O)Nc2cc(C)ccc2C)cc1 | 0.01 µM [falling, full curve, poor fit] | – |
| Cc1ccc(NS(=O)(=O)c2cccs2)cc1S(=O)(=O)N1CCCCCC1 | 0.0282 µM [falling, full curve, poor fit] | – |
| COc1ccc(-c2nc3ccccc3s2)cc1NC(C)=O | 0.158 µM [rising, full curve, poor fit] | – |
| Cc1ccc(C(=O)NN2C(=O)/C(=C/c3cccn3C)SC2=S)cc1 | 20 µM [rising, single point] | 12.6 µM [rising, single point] |
| O=C(CC1SCCNC1=O)Nc1ccc(Cl)c(Cl)c1 (stereo not given) | 20 µM [rising, single point] | – |
| Oc1ccc(C2C(c3ccccc3)=NN=C(c3ccccc3F)N2O)c(O)c1 (stereo not given) | 10 µM [rising, partial curve] | 7.94 µM [rising, partial curve] |
| NCc1cccc(-n2cccn2)c1 | 10 µM [falling, partial curve, poor fit] | – |
| O=C(O)CCCCCCC1C(=O)NC(=O)N1CCC(O)C1CCCCC1 (stereo not given) | 0.00631 µM [falling, full curve, poor fit] | 0.00447 µM [falling, full curve, poor fit] |
| Brc1ccccc1-c1nnc(SCc2nc3ccccc3s2)o1 | 14.1 µM [rising, partial curve] | 7.94 µM [rising, partial curve, poor fit] |
| COc1ccc(CN2CCN(S(=O)(=O)c3ccc(NC(C)=O)cc3)CC2)c(OC)c1OC | – | 0.0398 µM [rising, full curve] |
| CCc1nc2ccccc2n1Cc1ccccc1F | – | 0.126 µM [falling, full curve, poor fit] |
| Cc1ccc(-c2cc(C(F)F)nc(NCC3CCCO3)n2)cc1 (stereo not given) | – | 31.6 µM [rising, single point] |
| OCCN1CCN(Cc2cc(Cl)c3cccnc3c2O)CC1 | 22.4 µM [rising, single point] | – |
| COC(=O)N/N=C/c1cc(Cl)cc(Cl)c1OCc1ccc(F)cc1 | – | 5.01 µM [rising, single point] |
| CCOC(=O)c1cnc(SCc2cccc(C)c2)nc1N | 0.158 µM [rising, full curve, poor fit] | – |
| C/C(Cn1nnc([N+](=O)[O-])n1)=N\NC(=O)c1ccc(C)cc1 | 11.2 µM [rising, partial curve] | – |
| Cc1ccc(NC(=O)CCn2nc([N+](=O)[O-])cc2C)nc1 | 0.112 µM [falling, full curve, poor fit] | – |
| CCc1cc2c(=O)n(Cc3ccco3)c(SCC(=O)N3CCCc4ccccc43)nc2s1 | 17.8 µM [rising, partial curve] | 12.6 µM [rising, partial curve, poor fit] |

Arranged by count of non-hydrogen atoms (falling): 4 of the compounds above.

| Compound | AC50 [1] | AC50 [2] |
| --- | --- | --- |
| CCc1cc2c(=O)n(Cc3ccco3)c(SCC(=O)N3CCCc4ccccc43)nc2s1 | 17.8 µM [rising, partial curve] | 12.6 µM [rising, partial curve, poor fit] |
| Cc1ccc(C(=O)NN2C(=O)/C(=C/c3cccn3C)SC2=S)cc1 | 20 µM [rising, single point] | 12.6 µM [rising, single point] |
| O=C(CC1SCCNC1=O)Nc1ccc(Cl)c(Cl)c1 (stereo not given) | 20 µM [rising, single point] | – |
| NCc1cccc(-n2cccn2)c1 | 10 µM [falling, partial curve, poor fit] | – |

Next records follow:

| Compound | AC50 [1] | AC50 [2] |
| --- | --- | --- |
| CC(C)[C@H]1CC[C@@H](C)C(C(=O)c2ccccc2)C1=O (stereo not given in full) | – | 3.55 µM [rising, partial curve, poor fit] |
| O=C(O)C1CN(CCCP(=O)(O)O)CCN1 (stereo not given) | 0.00501 µM [falling, full curve, poor fit] | – |
| Cc1oc(-c2ccc(Cl)cc2)nc1CN1CCCC(C(=O)NCc2ccco2)C1 (stereo not given) | 20 µM [rising, partial curve] | 17.8 µM [rising, partial curve] |
| COc1cccc(-c2cc3nc(-c4ccccc4)cc(N4CCCC(O)C4)n3n2)c1 (stereo not given) | – | 0.158 µM [rising, full curve, poor fit] |
| Cc1nc(NCCc2ccccc2)c2oc3ccccc3c2n1 | 11.2 µM [rising, partial curve] | 10 µM [rising, partial curve] |
| O=C(O)c1ccccc1NCCO | – | 0.0891 µM [rising, full curve] |
| FC(F)Oc1ccc(NC(=S)NCc2ccccc2)cc1Cl | 35.5 µM [rising, single point] | – |
| CCCCc1nc(NCCO)c(C#N)c2c1CCCC2 | 0.0447 µM [rising, full curve] | 0.0398 µM [rising, full curve, poor fit] |
| O=C(CNC(=O)C(c1ccccc1)c1ccccc1)N/N=C/c1ccc(O)c([N+](=O)[O-])c1 | 14.1 µM [rising, single point] | – |
| CCOc1cccc(/C=N/NC(=O)c2cc(-c3cccn3C)n[nH]2)c1O | 25.1 µM [falling, partial curve] | 0.631 µM [falling, full curve] |
| CCOC(=O)c1cnc(SCC(=O)c2ccccc2)nc1N | – | 12.6 µM [rising, partial curve, poor fit] |
| COc1ccc(/C=N/Nc2nc(-c3ccc(Cl)cc3)cc(C(F)(F)F)n2)cc1OC | 28.2 µM [rising, single point] | – |
| COC(=O)c1ccc(Cn2c(SCC(=O)Nc3ccc(F)cc3)nc3ccccc32)cc1 | 0.0224 µM [falling, full curve, poor fit] | – |
| CCCCN(CC)Cc1ccc(CNS(=O)(=O)c2cc3c(cc2Cl)NC(=O)CO3)o1 | 0.316 µM [rising, full curve, poor fit] | 0.0224 µM [rising, full curve] |
| O=c1cc(N2CCOCC2)oc2c(-c3ccccc3)cccc12 | – | 0.00355 µM [falling, full curve, poor fit] |
| CC(=O)N(C1CC(C)C(C#N)(C#N)C1(C#N)C#N)N(C)C (stereo not given) | 14.1 µM [rising, single point] | – |
| Fc1ccc(-n2ncc3c(N4CCN(Cc5ccccc5)CC4)ncnc32)cc1 | – | 8.91 µM [falling, partial curve, poor fit] |
| CC(C)N(Cc1ccccc1)C(=S)NCc1ccccc1 | – | 0.0282 µM [falling, full curve, poor fit] |
| COc1ccccc1NS(=O)(=O)c1cc(NC(=O)c2ccc(Cl)nc2)ccc1Cl | 3.55 µM [rising, full curve] | 3.98 µM [rising, full curve, poor fit] |

| Compound | AC50 [1] | AC50 [2] |
| --- | --- | --- |
| O=C(O)/C=C/C(=O)NNc1ccc([N+](=O)[O-])cc1 | – | 28.2 µM [rising, single point] |
| COc1cccc(CNC(=O)CSc2n[nH]c(-c3ccccc3Cl)n2)c1 | – | 11.2 µM [rising, partial curve, poor fit] |
| CC1CC(C)(C)NC(=S)N1CCCC(=O)Nc1ccccc1F (stereo not given) | 0.00316 µM [falling, full curve, poor fit] | 0.708 µM [falling, full curve, poor fit] |
| NC1=NC(=O)S/C1=C\c1ccc(O)cc1 | 11.2 µM [rising, partial curve, poor fit] | – |
| C/C(Cn1nnc([N+](=O)[O-])n1)=N\NC(=O)c1cccc(Cl)c1 | 14.1 µM [rising, single point] | 8.91 µM [rising, partial curve] |
| CNC1C(O)C(OC2C(NC(=O)C(O)CN)CC(N)C(OC3OC(CN)C(O)C(O)C3O)C2O)OCC1(C)O (stereo not given) | – | 0.562 µM [rising, full curve] |
| CCn1c(SCC(=O)Nc2nc(-c3ccc(C)cc3)cs2)nnc1-c1ccccc1O | 5.62 µM [rising, single point] | – |
| Cc1nnnn1/C(=C\c1ccccc1)C(=O)OCC(=O)N1CC2(C)CC1CC(C)(C)C2 (stereo not given) | 15.8 µM [falling, single point] | 35.5 µM [falling, single point] |
| O=C(/C=C/c1ccc2c(c1)OCO2)NCCSCc1ccc(Cl)cc1Cl | 35.5 µM [rising, single point] | 15.8 µM [rising, single point] |
| O=C(N/N=C/c1cc(Br)cc(Br)c1O)c1cccc(N2CCCC2=O)c1 | 0.891 µM [rising, partial curve] | – |
| CCOC(=O)c1ccc(NC(=S)N2CCSC2c2ccc(Cl)cc2)cc1 (stereo not given) | – | 35.5 µM [falling, single point] |
| CCC(NC(=O)Nc1cccc(C)c1)c1c(-n2cccc2)sc2c1CCN(C)C2 (stereo not given) | 39.8 µM [falling, partial curve] | – |
| O=C(CCC1N=C2c3ccccc3N=C(SCC(=O)NCCc3ccccc3)N2C1=O)NCc1ccc(F)cc1 (stereo not given) | – | 0.708 µM [falling, single point] |
| COC(=O)[C@@H]1[C@@H](C#N)C2(c3ccccc3-c3ccccc32)N(c2ccc(Cl)cc2)N1C#N | 25.1 µM [falling, single point] | 22.4 µM [falling, single point] |
| CCC(C)c1ccc(C2C3=C(Nc4nc(N)[nH]c(=O)c42)c2ccccc2C3=O)cc1 (stereo not given) | 35.5 µM [falling, single point] | – |
| CCCCCN(C(=O)NC(=O)Nc1ccc(C)cc1C)S(C)(=O)=O | 3.16 µM [falling, partial curve, poor fit] | 6.31 µM [falling, partial curve] |
| CC/C(=C\C(=O)c1ccncc1)Nc1ccc(O)cc1 | 25.1 µM [rising, single point] | 17.8 µM [rising, partial curve] |
| CCCN(CCC)C(=O)Cn1c(=O)n(-c2ccc(Cl)c(Cl)c2)c(=O)c2c(C)c(C(=O)N(C)C)sc21 | 0.0112 µM [rising, full curve, poor fit] | 0.0178 µM [rising, full curve, poor fit] |
